Measurements from paper doi:10.1101/2022.07.12.499818.
No constants are given. Whether binding was seen depends on the method and setting. Binding seen in cells or lysates may run through a third protein. Where a sequence is shown, tags or fusion partners need not be part of it.

Molecular target: T1, ATG101, BiFC fusion (Arabidopsis) (UniProt F4K265)
T1 sequence: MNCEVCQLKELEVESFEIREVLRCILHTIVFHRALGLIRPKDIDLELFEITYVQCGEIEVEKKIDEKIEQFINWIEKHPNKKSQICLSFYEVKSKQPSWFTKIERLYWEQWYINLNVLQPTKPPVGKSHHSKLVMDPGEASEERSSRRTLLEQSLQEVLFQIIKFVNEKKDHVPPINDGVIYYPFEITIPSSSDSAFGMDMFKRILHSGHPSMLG
Assay: split reporter

phosphoglycerate kinase 2 (PGK2), BiFC fusion (Arabidopsis) (enzyme)
binding: no binding
